These are yes or no findings as the source states them, for the method shown. Binding seen in cells or lysates may run through a third protein. For part of these data: Where a sequence is shown, tags or fusion partners need not be part of it.

In assay [1] the target is T1, endogenous RAB-10 (C. elegans (endogenous in the animals)) (UniProt Q94148).
T1 sequence: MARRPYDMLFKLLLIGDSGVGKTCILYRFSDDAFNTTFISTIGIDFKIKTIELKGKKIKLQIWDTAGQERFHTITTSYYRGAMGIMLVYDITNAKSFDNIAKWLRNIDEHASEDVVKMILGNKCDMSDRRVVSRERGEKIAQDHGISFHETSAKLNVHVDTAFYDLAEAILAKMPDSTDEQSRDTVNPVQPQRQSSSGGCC
As to the kind of experiment: co-IP; EGL-8::mCherry and endogenous RAB-10 in C. elegans animals (Fig. S5A).

For assay [2], the target named is T2, RAB-10 used in GST pull-downs, loaded with GTPγS or GDP (C. elegans) (UniProt Q94148).
T2 sequence: T1 sequence
As to the kind of experiment: pull-down; GST pull-down with active RAB-10(GTPγS) and EGL-8 (Fig. S5B).

The target of assay [3] is T2, RAB-10 used in GST pull-downs, loaded with GTPγS or GDP (C. elegans). As to the kind of experiment: pull-down; GST pull-down with inactive RAB-10(GDP) and EGL-8 (Fig. S5B).

B1: EGL-8::mCherry (expressed in C. elegans animals) (enzyme, UniProt G5EBH0 1-1431)
chain: MAKEFQFNWKPTIIPELLHGSVFDRYDDESTCLELNAQVRIDENGFFLRWLIEGKDAVVLDMGQIWEARTGGLPKDGRIMFELEQRGASETIAERTIWITHGQDLVNVQSFFLVAESVELAKTCRAGINDILKSSRIRHVCPTTQLMKYHTWLTMNVNERRKIPIKLIIKTFSSGKPEKMVQKCLNDLGLGGDKYTPARVINRSMGKKFRNFYKCSRGRKRKEREELDVDILTFEKFQRLYNKICPRTEVQELFVKLSGQKEYLTKERLINFLNEEQRDPRLNEILFPFFDSQRIVALLKKHENDIKYQEDGKMSGDGFLRFLMSDENPPVFLDRIEMFMDMDQPLCHYYINSSHNTYLTGRQYGGKSSSEIYRQVLLSGCRCIELDCWDGTGENKGEPIITHGKAMCTDVFFKDVLVQIRDTAFARSDFPVVLSFENHCSKSNQLKMAKYCMDIFGDMLLSKPFEDAPLDPGVSLPSPNRLRKKILIKNKRLKTDIERHQLDQFLREGKLDEEDELNETPEVVGEDSVSPRSGGSGGTGAPEEVDDDTSDDDDDPSVQTSLNVMRTIPTVNTTSNNGSNRSARSSLDTPSPSGGSLMVPDRATSTATSIKNAVLARSPNFSSLRQKLSFKRRQSPLAGDQRAHPEVEQPVSSSSPATPSISGPPPCATSSGSTSSITITTTGCSTSSSGPSKHILGGEMPAKENDEAHPELKQNFIAKNLKGFGFSKKQPVLTKEEEERIFAEYHYTGATTNIHPLLSSLVNYTHPVKFSGFDVAEANNLHFHMSSFSESTGLGYLKQSAPEFVNYNKRQSSRIYPKGARVDSSNFLPQIFWNAGCQMVSLNFQTPDVYMQLNMGKFEYNGGSGYLLKPDFLRRPDRTFDPFSESPVDGVIAAHCSVRVISGQFLSDRKIGTYVEVEMYGLPTDTIRKEHKTKVIPGNGLNPVYNEDPFVFRKVVLPELAVLRFAVYDENGKQLGQRILPLDGLQAGYRHISLRSDTNQSFILSPVLFVQIVIKTYVPDELSGLVDALADPRAFLSEQKKRQEALAHMGVDDSDIPDVPNTRNMALRHVKQPPRQNGSSADLLANNGQTGSARGDQTSSMASSTIRSPNEQPQPVAVDKFKVDPIEVDDLRRDKAFAKLLKRFQKELDDLRKKHQKQRDSIQKQQPARRRNSSIAWIQTNVDKLITNNRRSTKKEKGSRRSLTASVSSGCGSASGTVTVSVCSPSGASCSGYSTGGPSTPVACNSDGTGSPATIGSPVPQDLVNNDRVRSLVNTQTGEWSAMVRRHDEEEFELKKVQLKEQFDLLRKLMSEAQKNQMLALKLRLEAEGKDLKQTQTKKSMEDAKVIQLDKGIKTKAERDRRVKELNEKNLKMFVEERKRLAMKAQKHEEQLTKRHLDQLEQLDKDFHKALDAEVGNYKEEQLAAQPTSVV
With B1, in assay [1], the binding entry was “no binding”.

B2: EGL-8 tested against RAB-10 in the GST pull-down of Fig. S5B (enzyme, UniProt G5EBH0 1-1431)
chain: B1 chain
On to B2, for which the binding result in assay [2] and in assay [3] was “no binding” throughout.

The record behind these values is publication PMC11891140.
